The test is described as follows: qHTS Assay for Lipid Storage Modulators in Drosophila S3 Cells.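 For cell number change: cells counted by Cell Tracker Red CMTPX staining in the red channel.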 As to conditions: BODIPY lipid droplet fluorescence, 18-24 h; for cell number change: measured here: cell count max response, cells fed with added oleic acid. A digest of the protocol:
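Laser-scanning cytometry quantifies lipid droplet accumulation (500–530 nm total intensity; droplet/cell object ratio) in oleic acid-fed (400 uM added) Drosophila S3 cells treated with a concentration series. 20 uM Triacsin C defined 100% inhibition.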

The mark [1] stands for this setting: measured here: lipid fluorescence (Fed channel) AC50, cells fed with added oleic acid.
Where [2] appears, read: measured here: cell number channel AC50, cells fed with added oleic acid.

Some of the results follow. These are further read-outs of the screen, such as a control signal, another cell line or another target. No call is given for them. The list favours compounds with an active or inconclusive main result. The note in brackets gives the kind of curve behind each potency; many fits are weak.

In the case of `Cc1ccccc1CN1CCN(C(=O)c2ccc(S(=O)(=O)NCc3ccco3)cc2)CC1`, the cell number change is -5.26%. The AC50 under setting [1] was 0.291 µM [rising, single point].
For the compound `CCOc1cccc2cc(C(N)=O)c(=NCc3ccccc3)oc12`, the AC50 under setting [1] was 25.9 µM [rising, single point].
In the case of `COc1ccc(CNC(=O)c2cc(C3CC3)nc3c2cnn3C(C)C)cc1`, the cell number change turned out to be 7.35%.
For `O=C(O)CCC(=O)Nc1ccc(Sc2ccc([N+](=O)[O-])cc2)cc1`, the cell number change was determined as 6.19%. Moreover, the AC50 under setting [2] was 6.51 µM [rising, single point].
In the case of `CCn1c(COc2cccc3cccnc23)nnc1SC(F)F`, the cell number change was -45.2%.
Turning to `COc1ccc(C(=O)NCCn2cc(SCC(=O)NCC3CCCO3)c3ccccc32)cc1OC` (stereo unspecified), the cell number change is -30.2%. Also, under setting [2], the AC50 was 18.4 µM [falling, single point].
For `C=CCNC(=O)/C(C#N)=C/c1ccc(C(=O)O)cc1`, the cell number change was -17.8%. For the same compound, the AC50 under setting [1] was 23.1 µM [falling, single point].
With `COCCCn1c(C)csc1=Nc1cccnc1`, the cell number change was found to be 39.5%. In addition, the AC50 under setting [2] was 9.2 µM [rising, partial curve].
Take `COc1ccc(N(CC(=O)NC2CCCC2)C(=O)CCC(=O)Nc2cc(C)on2)cc1`: the cell number change worked out at 5.26%. For the same compound, the AC50 under setting [1] is 22.4 µM [falling, single point].
As for `COc1cc2[nH]c(=S)nc(NCCC(C)C)c2cc1OC`, the cell number change was 10.5%. The AC50 under setting [2] is 2.59 µM [rising, partial curve, poor fit]. Moreover, under setting [1], the half-maximal activity concentration (AC50) was 1.46 µM [rising, partial curve].
Turning to `O=C(O)c1ccc(S(=O)(=O)NCC2CCCO2)cc1` (stereo unspecified), the cell number change was 14.5%. Moreover, under setting [1], the half-maximal activity concentration (AC50) is 1.84 µM [falling, partial curve].
For the compound `Cc1ccc(C(=O)N/C(=C/c2ccco2)C(=O)N2CCCCC2)cc1`, the cell number change was determined as 54.2%. In addition, the AC50 under setting [2] is 29.1 µM [rising, single point].
For `CCOC(=O)C1CCCN(c2c(N3CCN(C4CCCCC4)CC3)c(=O)c2=O)C1` (stereo unspecified), the cell number change was 7.77%. Moreover, the AC50 under setting [1] was 0.517 µM [rising, full curve, poor fit].
For `Cc1ccc(NC(=O)c2ccoc2C)cc1C`, the AC50 under setting [2] is 4.11 µM [falling, single point].
On to `CC(C)CCN1CCC(C)(NC(=O)c2ccccc2)C1=O` (stereo unspecified), for which the cell number change was -17.3%. Also, under setting [2], the AC50 is 1.03 µM [rising, single point]. The AC50 under setting [1] was 0.00517 µM [rising, full curve, poor fit].
For the compound `CCC(C)(C)C1CCC(=NNC(=S)Nc2ccccc2)CC1` (stereo unspecified), the cell number change was -66.5%. Further, under setting [2], the AC50 was 29.1 µM [falling, partial curve, poor fit]. Besides, the AC50 under setting [1] was 29.1 µM [falling, partial curve, poor fit].
Regarding `CC(C(=O)NC1CCCCC1)N1C(=O)c2cccc3cccc1c23` (stereo unspecified), the cell number change was -5.78%.
With `Cn1c(SCC(=O)C(C)(C)C)nnc1-c1ccncc1`, the cell number change was -19.3%. For the same compound, the AC50 under setting [2] was 0.082 µM [falling, full curve]. Further, the AC50 under setting [1] is 23.1 µM [falling, partial curve].
For the compound `CCCNC(=O)NC1CCCc2ccccc21` (stereo unspecified), the cell number change is 8.13%.
As to `Cc1ccc(NC(=S)N2CCN(S(=O)(=O)c3c(F)cccc3F)CC2)cc1C`, the AC50 under setting [2] was 6.51 µM [rising, single point].
As for `Cc1ccc(C(=O)C2=C(O)C(=O)N(Cc3ccco3)C2c2ccc(N(C)C)cc2)o1` (stereo unspecified), the cell number change was -27.5%. Besides, the AC50 under setting [1] was 4.11 µM [rising, single point].
`Cc1cc(C(=O)COc2ccc(F)cc2Br)c(C)n1C`: the cell number change amounted to 71.4%.
In the case of `Cc1n[nH]c(=O)c2c(NC(=O)CSc3cc(Cl)ccc3Cl)oc(C)c12`, the cell number change is -16.2%. For the same compound, the AC50 under setting [1] is 0.326 µM [falling, partial curve, poor fit].
On to `C/C(=N\NC(=O)Cn1ccc(C(F)(F)F)n1)c1ccc2c(c1)OCO2`, for which the AC50 under setting [1] is 16.4 µM [rising, single point].
For `CCOc1ccccc1CNC(=O)c1cc2oc3ccccc3c2n1C`, the AC50 was 1.46 µM [rising, full curve] under setting [2] and 2.06 µM [rising, partial curve] under setting [1].
For the compound `N#CCc1ccc(NC(=O)c2ccc(CN3CCc4ccccc4C3)cc2)cc1`, the cell number change worked out at 7.77%.
As to `CCOC(=O)CCNC(=O)N1CCCC(C(=O)c2cccc(Cl)c2)C1` (stereo unspecified), the cell number change is -50.5%. For the same compound, under setting [2], the AC50 was 8.2 µM [falling, partial curve]. Further, the AC50 under setting [1] is 5.17 µM [falling, partial curve].
Consider `CN(C(=O)COC(=O)c1ccc2ccccc2n1)C1CCS(=O)(=O)C1` (stereo unspecified), for which the cell number change came out at 97.8%. The AC50 under setting [2] is 29.1 µM [rising, single point].
Regarding `O=C(NNC1=NCCCCC1)Nc1ccc(Cl)cc1`, the cell number change was -31.7%. In addition, under setting [1], the AC50 was 29.1 µM [falling, single point].
Consider `CN(C)/C=C1\C=C(c2ccccc2)OC1=O`, for which the cell number change was 6.61%. In addition, the AC50 under setting [1] was 23.1 µM [falling, single point].
In the case of `COc1ccc(Nc2oc(-c3ccco3)nc2S(=O)(=O)c2ccc(F)cc2)cc1`, the cell number change stood at 5.19%. In addition, under setting [1], the AC50 is 1.46 µM [rising, partial curve, poor fit].
With `O=C(Cn1cnc2c(nnn2-c2ccccc2)c1=O)N1CCOCC1`, the cell number change was -74.7%. In addition, the AC50 under setting [2] is 32.6 µM [falling, partial curve, poor fit]. The AC50 under setting [1] was 18.4 µM [falling, partial curve].
Consider `CN(c1ccccc1C(=O)Nc1ccc2c(c1)n(C)c(=O)n2C)S(C)(=O)=O`, for which the cell number change turned out to be 4.39%. Besides, the AC50 under setting [1] was 23.1 µM [falling, single point].
Regarding `COC(=O)[C@]1(CC(C)C)N[C@H](c2ccc(-c3cccc(Cl)c3)cc2)[C@@H]2C(=O)N(C)C(=O)[C@@H]21`, the cell number change was -53.7%. The AC50 under setting [2] was 16.4 µM [falling, single point]. Under setting [1], the AC50 was 0.731 µM [falling, full curve, poor fit].
Consider `COc1ccc([C@H]2CC(=O)C=C(/C=C/Cc3ccccc3)C2)cc1`, for which the cell number change was -8.66%. In addition, the AC50 under setting [1] was 6.51 µM [falling, single point].
Regarding `CCC(NC(=O)c1ccccc1O)c1ccccc1` (stereo unspecified), the cell number change was -17%.
Regarding `COCCNC(=O)CCc1nc(-c2ccccc2)no1`, the cell number change was -16.4%. For the same compound, under setting [2], the AC50 was 6.51 µM [falling, single point]. Under setting [1], the AC50 is 14.6 µM [falling, partial curve].
As to `CC(C)Oc1ccccc1NC(=O)CSc1nc2ccccc2c(=O)n1C`, the cell number change came to 15.1%. Also, the AC50 under setting [1] is 20.6 µM [falling, single point].
As to `CCOC(=O)N(C)c1ccc(C(O)(C(F)(F)F)C(F)(F)F)cc1`, the AC50 under setting [2] was 4.61 µM [rising, single point].
Turning to `O=C(CSc1ccc([N+](=O)[O-])cn1)Nc1cc(C(F)(F)F)ccc1N1CCOCC1`, the cell number change is -23.2%. For the same compound, under setting [1], the AC50 was 0.00461 µM [rising, full curve, poor fit].
With `O=C(COC(=O)C1CC1)NC(=O)c1ccccc1`, the cell number change came out at 18.4%. Further, under setting [2], the AC50 is 0.092 µM [falling, full curve, poor fit]. In addition, under setting [1], the AC50 is 2.31 µM [rising, partial curve].
Regarding `CCCNC(=O)C(=O)NCCC1=CCCCC1`, the cell number change is -14.6%. Besides, the AC50 under setting [2] was 0.00461 µM [falling, full curve, poor fit]. Besides, under setting [1], the AC50 is 0.00461 µM [falling, full curve].
For the compound `Cc1ccccc1NC(=O)CSc1nnc(Cc2ccccc2)c(=O)n1N`, the AC50 under setting [2] is 2.06 µM [rising, partial curve].
On to `COc1ccccc1N1C(=O)Cc2ccccc2C1=O`, for which the cell number change is -8.11%. The AC50 under setting [1] was 0.58 µM [rising, single point].
Regarding `CCOC(=O)N1CCN(C(=O)c2c[nH]c3ccc(S(=O)(=O)N(C)c4ccc(F)cc4)cc3c2=O)CC1`, the AC50 under setting [1] is 18.4 µM [rising, single point].
Consider `COc1cc2c(cc1OC)C1(NCC2)C(=O)Nc2ccccc21` (stereo unspecified), for which the cell number change was -18.8%.
Same read-out and setting: as for `CCN(CC)S(=O)(=O)c1cccc(C(=O)OC2CCOC2=O)c1` (stereo unspecified), the figure is -17.6%.
`CCN(CC)CCNS(=O)(=O)c1ccc(Cl)cc1`: the cell number change came to 7.71%. Also, the AC50 under setting [2] is 0.00517 µM [falling, full curve, poor fit].
As for `CCOC(=O)CCN(c1ccccc1)S(=O)(=O)c1ccc(-c2ccc(=O)[nH]n2)s1`, the cell number change is -12.5%.
In the case of `CC(NC(=O)CN(c1ccccc1F)S(C)(=O)=O)c1ccccc1` (stereo unspecified), the cell number change was -17.3%. Besides, the AC50 under setting [1] was 18.4 µM [falling, partial curve].
For the compound `CC1CCCCN1C(=O)c1cc2nc(-c3ccccc3)cc(-c3ccccc3)n2n1` (stereo unspecified), the cell number change was -17%. In addition, under setting [1], the AC50 was 29.1 µM [falling, single point].
Consider `CCOc1cc(/C=C(\C#N)C(=O)NCC2CCCO2)ccc1O` (stereo unspecified), for which the cell number change was -27.8%. Under setting [1], the AC50 was 18.4 µM [falling, partial curve].
Regarding `O=C1CSC(c2cccnc2)N1C1CCCCC1` (stereo unspecified), the cell number change was -2.67%. Moreover, under setting [1], the AC50 was 32.6 µM [falling, partial curve, poor fit].
For the compound `CCOC(=O)/C=C/C(=O)Nc1ccc(S(=O)(=O)Nc2c(C)cc(C)cc2C)cc1`, the cell number change is 11.8%. The AC50 under setting [1] is 0.731 µM [rising, full curve, poor fit].
For `COc1ccc(Br)cc1CNC(=O)C1CCN(c2nnc(N3CCCC3=O)s2)CC1`, the cell number change worked out at 16.5%. For the same compound, the AC50 under setting [1] was 29.1 µM [rising, single point].
For `CCN(CC)C(=O)C1CCCN(C(=O)Nc2ccccc2)C1` (stereo unspecified), the cell number change came out at 11.7%. Moreover, the AC50 under setting [1] was 3.26 µM [rising, single point].
For `Cc1cc2c(s1)CCCCC(=O)N2`, under setting [1], the AC50 is 6.51 µM [falling, single point].
Take `Cc1cc(NS(=O)(=O)c2ccc(NC(=O)c3cc4ccccc4o3)cc2)no1`: under setting [2], the AC50 is 3.66 µM [rising, partial curve].
Turning to `Cc1cc(C)c(C)c(OCC(=O)NCC2CCCO2)c1` (stereo unspecified), the cell number change came out at 82.3%. Further, the AC50 under setting [2] was 9.2 µM [rising, partial curve]. Further, the AC50 under setting [1] was 6.51 µM [rising, single point].
Take `CCn1c(SCC(=O)c2ccc3c(c2)OCCO3)nnc1C(C)C`: the cell number change amounted to 0.495%. Moreover, the AC50 under setting [2] is 6.51 µM [rising, single point]. Also, under setting [1], the AC50 is 9.2 µM [rising, partial curve].
With `O=C(/C=C/c1ccc(F)cc1)c1ccccc1Br`, the cell number change is -45%. Moreover, the AC50 under setting [2] is 9.2 µM [falling, partial curve]. Besides, the AC50 under setting [1] is 11.6 µM [falling, partial curve].

For the origin of these results see PubChem BioAssay AID2685 (National Center for Advancing Translational Sciences (NCATS), 2010).
